Laboratory results as given in paper PMC7615117, “DNSN-1 recruits GINS for CMG helicase assembly during DNA replication initiation in C. elegans” (Science (New York, N.Y.), 2023).
Results are given in words; binding and its absence hold for the method and conditions named. A result given as binding can be weak or reduced; the word gives no strength.

Key:
[1] = target: T1, PSF-2 (C. elegans) (UniProt O62193); test: cryo-EM structure; CMG (125 nM) with fork DNA, AMP-PNP, TIM-1/TIPN-1 and DNSN-1 isoform c (each 1.3-fold molar excess), GraFix gradient with glutaraldehyde and BS3; both purified
T1 sequence: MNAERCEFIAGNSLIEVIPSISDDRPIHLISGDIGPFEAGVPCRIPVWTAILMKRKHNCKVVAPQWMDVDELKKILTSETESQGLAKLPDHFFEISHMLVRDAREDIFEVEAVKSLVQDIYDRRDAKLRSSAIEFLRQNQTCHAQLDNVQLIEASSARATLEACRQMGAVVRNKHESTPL

[2] = target: T2, MCM-3 (C. elegans, UniProt Q9XVR7 1-812); test: as above
T2 construct: MCM-3, C. elegans; Subunit of m11, written alone for its contacts in the structure; also called MCM-3 subunit of MCM-2-7; source: S. cerevisiae, purified as part of recombinant CMG
T2 sequence: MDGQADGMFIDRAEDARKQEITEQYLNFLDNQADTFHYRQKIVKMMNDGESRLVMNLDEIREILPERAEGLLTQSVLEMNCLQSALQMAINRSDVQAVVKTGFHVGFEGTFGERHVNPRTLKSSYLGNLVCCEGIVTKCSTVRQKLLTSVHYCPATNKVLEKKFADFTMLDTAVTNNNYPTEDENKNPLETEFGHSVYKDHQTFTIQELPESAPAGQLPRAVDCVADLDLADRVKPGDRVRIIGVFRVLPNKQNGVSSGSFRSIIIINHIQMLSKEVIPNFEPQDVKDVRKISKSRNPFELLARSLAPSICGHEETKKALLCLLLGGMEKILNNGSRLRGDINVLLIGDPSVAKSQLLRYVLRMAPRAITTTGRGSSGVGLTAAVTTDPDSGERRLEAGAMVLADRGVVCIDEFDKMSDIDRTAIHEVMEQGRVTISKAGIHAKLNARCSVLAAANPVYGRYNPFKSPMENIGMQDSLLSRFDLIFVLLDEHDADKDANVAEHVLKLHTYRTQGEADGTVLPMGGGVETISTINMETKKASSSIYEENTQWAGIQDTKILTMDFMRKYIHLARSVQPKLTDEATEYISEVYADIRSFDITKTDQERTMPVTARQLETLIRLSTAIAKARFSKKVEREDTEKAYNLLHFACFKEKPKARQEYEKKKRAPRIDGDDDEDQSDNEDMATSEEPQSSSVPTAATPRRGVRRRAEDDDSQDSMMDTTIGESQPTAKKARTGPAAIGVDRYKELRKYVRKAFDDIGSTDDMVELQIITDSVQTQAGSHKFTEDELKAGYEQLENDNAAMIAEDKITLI

binding [1]: binds | binding [2]: binds
Substance: recombinant C. elegans DNSN-1
